This sample is rich in variants without activity.
B1: tRNA (parent)
chain: GUUCCGUUGGCGUAAUGGUAACGCGUCUCCCUCCUAAGGAGAAGACUGCGGGUUCGAGUCCCGUACGGAACG

Variants of: B1
Experiment: yeast fitness relative to wild type (ratio to wild type); higher = fitter; tRNA-Arg(CCU), competitive growth, 37 C, YPD
How it was run: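 Gene amplicons from the start population and from each of six end populations were read by 100-nucleotide paired-end sequencing. Those end populations came from pooled Saccharomyces cerevisiae strains carrying tRNA-Arg(CCU) gene variants at the native locus, competed in YPD at 37°C for 24 hours. Fitness relative to wild type was worked out from changes in genotype frequencies. Genotypes needed ≥ 100 starting reads, and estimates < 0.5 were set to 0.5.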

Variant | yeast fitness
U35G A43C U47C C55U A69C | ≤ 0.5
U32G C46U G51A | ≤ 0.5
U28G U54G A65C G67A | ≤ 0.5
A20U A37U C55U | ≤ 0.5
C11U U19G C27U G48A | ≤ 0.5
C4A G52C A57C | ≤ 0.5
C29U A42U A45C | 0.51
A21C G41A C61G | ≤ 0.5
A36C G50A A57G A65C | ≤ 0.5
C5A C46A G56C G68A A70G | ≤ 0.5
C11A C34G C60A C61U | ≤ 0.5
G63A A69C | 0.941
C5G U7G A69C | ≤ 0.5
A15U U19C C31U A40C A69C | ≤ 0.5
G9A A15U A45U A65C | ≤ 0.5
C11U C27U C31A U35C C55G C66U | ≤ 0.5
C31U U35A A37G A40C U47C G68C | ≤ 0.5
C11A G25A | 0.572
U8G A14C U26G A43G | ≤ 0.5
U16C A21U | 0.756
C5A U16A A45G G50A G63A | ≤ 0.5
G38A A42C U54C | ≤ 0.5
C4U G9C A45G | ≤ 0.5
U53C C66U A69U | ≤ 0.5

Variant | yeast fitness
U7C C30U C34A C62U A70U | ≤ 0.5
U19A C22G A70U | 0.509
U2G C27G C33U U54C | ≤ 0.5
A21G C31A A42G A57U | ≤ 0.5
G17C U53A | 0.583
U26C G44C G58A G68C | ≤ 0.5
A14C A21G C29A C61U | ≤ 0.5
C22U G44C U64G | ≤ 0.5
U28C U35A A40U A57U | ≤ 0.5
C11G G25A C31G | ≤ 0.5
C4A C30U G38C A42G | ≤ 0.5
C31U G52C A65U | ≤ 0.5
G12A C30G C31U C46U C55U U59A C62A | ≤ 0.5
C33G A42C C46G C49G | ≤ 0.5
U2A C5A U64G C66U | ≤ 0.5
G6C G56C G63A | ≤ 0.5
C31U C61A U64A A69U | ≤ 0.5
C27A C34A | 0.68
G10A A14U A40G | ≤ 0.5
U8C C22G C29U A43U C46A | ≤ 0.5
A15U C27G C49A G52U | ≤ 0.5
C5G G10C C46G C66G A69C | ≤ 0.5
C24U A37C C60G G67C | ≤ 0.5
G17A C46U G51A G56A | ≤ 0.5

Variant | yeast fitness
G9C G41C A57C | ≤ 0.5
U32G C33U G67C | ≤ 0.5
U8A C34U C55G | ≤ 0.5
C4U C11G C62U | ≤ 0.5
G10C A43G C61A | ≤ 0.5
G9C C27G C33A U47A | ≤ 0.5
U8C C22A U53A C62U | ≤ 0.5
C29G A40C A57C | 0.551
U2C U16C C22A C29A G51C | ≤ 0.5
U8C C29A A36C C61G C66U A69U | ≤ 0.5
U19G A69U | 0.892
U8A U26A C29A C66A A70U | ≤ 0.5
C4G U28A G39A A65U G68A | ≤ 0.5
U2G U3C C46A | ≤ 0.5
C11U U53A A65U | ≤ 0.5
U7A C11A C30U U32A | ≤ 0.5
U2C C11A A21C C31U | ≤ 0.5
C11U C29U C55U | ≤ 0.5
G6C C27G C31G | ≤ 0.5
G6C A45C G67C | 0.536
U28C C30A G39A C66U | 0.594
C5U C11U A37G G56A | ≤ 0.5
C5G A36G A43U | 0.549
C11U C29G U59C | ≤ 0.5

Variant | yeast fitness
U2G C29G C33G | ≤ 0.5
A14C C60G | ≤ 0.5
U2A C33U A37C A70G | ≤ 0.5
C34A A43C G67C | ≤ 0.5
G17A A40C | 0.668
C33A G39C G41C G44C | 0.549
C27G A65C G67A | ≤ 0.5
C4U C11U G44C C49U A70U | ≤ 0.5
U35A G39C C46A | ≤ 0.5
C4G U13A A21C U35A | ≤ 0.5
A15U C33U A65C G68C | ≤ 0.5
G10C A36C U47A G48C U54G A65C | ≤ 0.5
C5U C11A U26A C29U C30A C31U C60U C61U | ≤ 0.5
G10A U13A C24A | 0.582
U8G C34U A43C U53G | ≤ 0.5
A15G A21C U32C U64A | ≤ 0.5
C5U G6C A21U G38C G39A A43C C60G A65C | ≤ 0.5
C4G C11U A21C G39C A42U G48C | ≤ 0.5
C4U C34A A37G G41C C55G | ≤ 0.5
G58A C60U A70G | 0.702
G25A U28C | 0.891
A36G A37U G56C | ≤ 0.5
A40C G67A | 0.846
A45G G58A C60U | 0.584

Variant | yeast fitness
G23C C34U | ≤ 0.5
G10A A20G G23A A37G A40C | ≤ 0.5
A40C U54A C66A | ≤ 0.5
C5G G41C A42U C66U | ≤ 0.5
C24A A40G C61U G68A | ≤ 0.5
C33G C34G A43C G48C A70C | ≤ 0.5
G12A C22U A40G A43G | ≤ 0.5
C24G U47G U53C G63A | ≤ 0.5
G25C C49G G56C A70U | ≤ 0.5
G9C U26G G50C C55G C61G | ≤ 0.5
C11A C27G A43C C60G | ≤ 0.5
A15C C61A C66U | ≤ 0.5
C4G G23C C30G | ≤ 0.5
G9C C24U G48C G51A G63A | ≤ 0.5
U7A U8A C11G G56A A69U | 0.548
C11G A45U C49G | ≤ 0.5
A36G A45C A57C U64A G68A | ≤ 0.5
U7C U28A A37G C46U U47C | ≤ 0.5
G17C C31G A45C U54C | ≤ 0.5
C5G A36C A42G C61G A70U | ≤ 0.5
A14U A21G A43U | ≤ 0.5
U16G G39C A45G U53C | ≤ 0.5
A14G G18A | 0.63
U13C U54A G67C A69U | ≤ 0.5

Variant | yeast fitness
C4G C11G A43C C55U | ≤ 0.5
C29G C33U G56U | ≤ 0.5
G9A C60G C66G G68A | ≤ 0.5
C5G G9C A21G C30G A36G C46G A57U | ≤ 0.5
C33A C34U G39C U54A | ≤ 0.5
C29G U47A C55G | ≤ 0.5
C30U A57G C66U | 0.53
U32C G52A G58C | ≤ 0.5
U26C C55G G68U | ≤ 0.5
U3A G6A A37C U64A G68C A69U | ≤ 0.5
U19G G52C C61U | ≤ 0.5
A21G C24G C29A A43U G68C | ≤ 0.5
A15C C27U G63A | ≤ 0.5
A43C C49A A65C | ≤ 0.5
C22U A42G C49U U64A | ≤ 0.5
G10A G17C C30G C33G G52C | ≤ 0.5
A21C C22G G67U | ≤ 0.5
U2G G9C G10C C24U C29G C30A | ≤ 0.5
U3A C27A C62A | ≤ 0.5
U2C U3C C34U C66U | ≤ 0.5
U2A U13G U28A A36U A45U A57G | 0.59
U2C A21U G50A U54G | ≤ 0.5
C55G A69C | 0.593
A20U U26C C34G A36C C55U A65U | ≤ 0.5

Variant | yeast fitness
U7C U28A G48C A70C | ≤ 0.5
A20U C24U A42C C62G | 0.735
C4U G48C G52C A57C G58A | ≤ 0.5
G12C A14U C29U | ≤ 0.5
G10U C11A G25C C29U A65C A70U | ≤ 0.5
A14U C34G G56C | ≤ 0.5
U3C A37G U47C G52A C61U | ≤ 0.5
C11U G38C C62G A69C | ≤ 0.5
G12C C55U C61G | ≤ 0.5
C24G U54G C60U G63A | ≤ 0.5
C11G A15U A36U | ≤ 0.5
U3A A20U G50A C66G | ≤ 0.5
G25A U53C | 0.819
G6C C33G C34U G58A | ≤ 0.5
C30G C33G A70G | ≤ 0.5
C34G C55U G63A G67A | ≤ 0.5
C33U A36C A45C G48A C55A | ≤ 0.5
G6A C22U A40G A43U C46G C49G C62U | ≤ 0.5
G23C C33U G39A C60A | ≤ 0.5
U32C A40G C62G G68A A69C | ≤ 0.5
C34A A42U G51U A69U | ≤ 0.5
C4U C27A A36C A40G C62A | ≤ 0.5
G6A C55U G63C | ≤ 0.5

— the RNAGym collection of RNA variant scans (doi:10.1126/science.aae0568)
